Out of some 1,300 compounds screened, about 65 (5%) were called active.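 Rule for the calls: active = growth inhibition reaching a set limit at one or more tested doses; inactive = the rest.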 The list shows a part of the results. Potency and affinity values are given separately.

Data on 24 molecules can be found in PubChem BioAssay AID638 (SRMLSC, 2007).

The nature of the assay: growth inhibition of wild-type E. coli, dose response, BW25113 wild type, OD615 (AID 638). To be noted: at 100 µM (top of the series). Put shortly:
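Material – E. coli BW25113 wild type · Medium – Kanamycin-supplemented LB broth · Doses – compound dilution series for dose-response · Incubation – 20 h compound exposure, 37 °C · Technique – optical density (absorbance) at 615 nm · Read-out basis – IC50 from 4-parameter logistic, bounds fixed 0–100% · Control set – chloramphenicol at 30 µM final as inhibition control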
On to `Clc1ccc(COC(Cn2ccnc2)c2ccc(Cl)cc2Cl)c(Cl)c1` (centres undefined), for which the growth inhibition was active: 10.9%.

Take `Cc1nn(-c2ccccc2)c(Cl)c1C1C(C#N)=C(N)Oc2c1c(=O)oc1ccccc21` (centres undefined): the growth inhibition was inactive: 3.35%. Consider `N=c1c2c(n(Cc3ccc(Cl)cc3Cl)c3c1CCC3)CCCC2`, for which the growth inhibition was inactive: 16%. As for `N=C(N)c1c(O)n(C2CCCCC2)c(=O)n(C2CCCCC2)c1=O`, the growth inhibition is inactive: -4.62%. As for `CCC(=Nc1ccc(OC)cc1OC)c1c(O)n(C2CCCCC2)c(=O)[nH]c1=O`, the growth inhibition is inactive: -2.11%. To `Cc1ccccc1C1=NCC(=O)N(CC(=O)NCc2ccco2)c2sc3c(c21)CCCC3` belongs inactive: -2.01%. For the molecule `Clc1ccc(COC(Cn2ccnc2)c2ccc(Cl)cc2Cl)cc1` (centres undefined), the growth inhibition was inactive: 4.14%. The same measure for `FC(F)(F)c1ccc2c(c1)nnn2C1CCN(Cc2nnnn2Cc2ccccc2)CC1`: inactive: -4.25%; for `Cc1ccc(C2C(S(C)(=O)=O)=C(O)C(=O)N2c2ccccc2)cc1` (centres undefined) (tested in a mixture with another compound): inactive: 5.08%. To `CCCCN1C(=O)NC(=O)C2(Cc3c(nc4c(C)cccn4c3=O)N3CCc4ccccc4C32)C1=O` (centres undefined) belongs inactive: -3.03%; to `CCn1nc(-c2ccccc2)nc2c(=O)n(C)c(=O)nc1-2`, inactive: 17.9%; to `Cc1ccc(CN2C(=O)NC(=O)C3(Cc4c(nc5ccccn5c4=O)N4CCCCCC43)C2=O)cc1` (centres undefined), inactive: -1.32%.

For `CCOC(=O)C1=C(N)OC2=C(C(=O)CCC2)C12C(=O)N1c3c(ccc(C)c32)C(C)=CC1(C)C` (centres undefined), the growth inhibition was inactive: 7.09%. For the molecule `CCC(=NCc1ccc2c(c1)OCO2)c1c(O)n(C2CCCCC2)c(=O)[nH]c1=O`, the growth inhibition is inactive: -5.3%. In the case of `Nc1c(C(=O)NCCc2ccccc2)c2nc3ccccc3nc2n1CCN1CCOCC1`, the growth inhibition is inactive: -7.05%. With `CCCCn1c(O)c(C(CC)=NCCc2ccccc2)c(=O)[nH]c1=O`, the growth inhibition was inactive: 1.9%. For the molecule `CCCCCCN=C(CC)c1c(O)n(CCCC)c(=O)[nH]c1=O`, the growth inhibition is inactive: 4.71%. To `CCOC(=O)c1c(-c2ccc(OC)cc2)oc2ccc(OC(=O)N(C)C)cc12` belongs inactive: -0.99%; to `CC(C)CCOC(=O)c1c(N)n(CC2CCCO2)c2nc3ccccc3nc12` (centres undefined), inactive: 9.75%. For the molecule `Cc1cccn2c(=O)c3c(nc12)N1CCC(Cc2ccccc2)CC1C1(C3)C(=O)N(C)C(=O)N(C)C1=O` (centres undefined), the growth inhibition is inactive: 7.02%. As for `CN(C)C1(c2nnnn2CCOC(=O)Nc2ccc(Cl)cc2)CCCCC1`, the growth inhibition is inactive: 4.48%. For the molecule `CCCCCCn1c(N)c(C(=O)NCCN2CCOCC2)c2nc3ccccc3nc21`, the growth inhibition was inactive: -1%. For `CCOC(=O)c1c(-c2ccccc2)oc2ccc(OC(=O)N(C)C)cc12`, the growth inhibition is inactive: 5.66%.

Regarding `CC(C)(C)n1c(O)c(C=Nc2ccc3c(c2)CCC3)c(=O)[nH]c1=O`, the growth inhibition was inactive: -6.7%.
